Publication PMC11148166
No constants are given. Whether binding was seen depends on the method and setting. In cells and extracts the contact can be indirect. These calls come from enrichment with a bait or labelling near it, and not all partners need be listed. Tags and fused reporters may be left off the sequences shown.

T1: STAT1-TurboID-V5 (mouse) (UniProt P42225)
T1 sequence: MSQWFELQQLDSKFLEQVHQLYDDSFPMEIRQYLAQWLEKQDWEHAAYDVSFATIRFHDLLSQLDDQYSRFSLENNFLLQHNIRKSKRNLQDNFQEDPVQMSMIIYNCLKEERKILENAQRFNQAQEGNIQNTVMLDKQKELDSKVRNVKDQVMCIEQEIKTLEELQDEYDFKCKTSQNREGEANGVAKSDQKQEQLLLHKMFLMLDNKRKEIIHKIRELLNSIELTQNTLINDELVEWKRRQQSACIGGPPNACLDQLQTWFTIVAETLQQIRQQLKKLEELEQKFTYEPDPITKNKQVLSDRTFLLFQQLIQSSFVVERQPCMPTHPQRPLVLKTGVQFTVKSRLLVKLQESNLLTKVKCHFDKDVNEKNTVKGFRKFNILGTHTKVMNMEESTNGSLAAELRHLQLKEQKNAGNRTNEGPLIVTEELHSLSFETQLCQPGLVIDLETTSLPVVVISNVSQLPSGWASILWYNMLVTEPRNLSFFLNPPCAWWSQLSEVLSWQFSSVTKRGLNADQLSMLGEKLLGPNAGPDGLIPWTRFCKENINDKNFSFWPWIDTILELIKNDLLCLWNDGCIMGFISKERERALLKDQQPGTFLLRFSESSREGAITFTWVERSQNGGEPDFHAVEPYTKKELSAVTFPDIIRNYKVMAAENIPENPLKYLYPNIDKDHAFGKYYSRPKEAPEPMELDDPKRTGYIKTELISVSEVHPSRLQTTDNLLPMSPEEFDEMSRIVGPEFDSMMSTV

T2: STAT1-TurboID-V5 (mouse), P42225
T2 chain: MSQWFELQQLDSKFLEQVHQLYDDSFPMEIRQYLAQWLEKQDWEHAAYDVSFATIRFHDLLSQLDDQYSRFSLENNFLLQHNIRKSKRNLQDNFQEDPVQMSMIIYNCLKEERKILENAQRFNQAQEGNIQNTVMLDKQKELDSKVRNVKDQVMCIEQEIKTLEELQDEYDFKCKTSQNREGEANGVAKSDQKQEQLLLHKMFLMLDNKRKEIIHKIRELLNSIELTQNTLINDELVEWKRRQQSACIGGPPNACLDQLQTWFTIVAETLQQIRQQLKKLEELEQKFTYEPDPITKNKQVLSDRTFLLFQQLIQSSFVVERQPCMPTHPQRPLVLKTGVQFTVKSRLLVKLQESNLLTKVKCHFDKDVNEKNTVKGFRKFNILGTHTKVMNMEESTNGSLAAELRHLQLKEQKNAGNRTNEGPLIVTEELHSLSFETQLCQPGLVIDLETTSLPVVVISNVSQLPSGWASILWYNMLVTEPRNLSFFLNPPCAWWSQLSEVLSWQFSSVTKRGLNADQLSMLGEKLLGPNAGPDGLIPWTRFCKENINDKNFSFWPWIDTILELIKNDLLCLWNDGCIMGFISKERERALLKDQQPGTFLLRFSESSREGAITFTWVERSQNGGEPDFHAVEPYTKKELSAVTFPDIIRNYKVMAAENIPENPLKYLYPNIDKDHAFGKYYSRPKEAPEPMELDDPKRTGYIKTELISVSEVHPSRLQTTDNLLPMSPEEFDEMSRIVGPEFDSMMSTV

B1: Edc3 (protein, UniProt Q8K2D3 1-508)
chain: MAMDWLGSIVSINCGDSLGVYQGRVSAVDQVSQTISLTRPFHNGVKCLVPEVTFRAGDITELKILEIPGPGDNQQVGDLHQTELGPSGVGYQMSISQNGTGKVVKKPASSSSAPQSIPKRTDVKSQDVAISPQQQQCSKSYVDRHMESLSQSKSFRRRHNSWSSSSRHPNQATPKKSGLKNGQMKNKDDECFGDDIEELPDTDFDFEGNLALFDKAAVFEEIDTYERRSGSRSRGVPNERPARYRHDENILESEPIVYRRITVPHSVSKEFCTDSGLVVPSVSYELHKKLLSVAEKHGLTLERRLEMTGVCASQMALTLLGGPNRLNPKNVHQRPTVALLCGPHVKGAQGISCGRHLANHDVQVILFLPNFVKMLESITNELSLFSKTQGQQVSSLRDLPASPVDLVINCLDCPENAFLRDQPWYKAAVAWANQNRAPVLSIDPPVHEVEQGIDAKWSLALGLPLPLGEHAGRVYLCDIGIPQQVFQEVGINYHSPFGCKFVIPLHSA
B2: Parp9 (protein, UniProt Q8CAS9 1-866)
chain: MAYYMDTWAAAPAERPGMIASLSLSFKKAFAELFPQRRRGHSEGDYPPLRGSANNSLEEHYRWQIPIKHNVFEILKSNESQLCEVLQNKFGCISTLSCPTLAGSSSPAQRVFRRTLIPGIELSVWKDDLTRHVVDAVVNAANENLLHGSGLAGSLVKTGGFEIQEESKRIIANVGKISVGGIAITGAGRLPCHLIIHAVGPRWTVTNSQTAIELLKFAIRNILDYVTKYDLRIKTVAIPALSSGIFQFPLDLCTSIILETIRLYFQDKQMFGNLREIHLVSNEDPTVASFKSASESILGRDLSSWGGPETDPASTMTLRIGRGLTLQIVQGCIEMQTTDVIVNSGYMQDFKSGRVAQSILRQAGVEMEKELDKVNLSTDYQEVWVTKGFKLSCQYVFHVAWHSQINKYQILKDAMKSCLEKCLKPDINSISFPALGTGLMDLKKSTAAQIMFEEVFAFAKEHKEKTLTVKIVIFPVDVETYKIFYAEMTKRSNELNLSGNSGALALQWSSGEQRRGGLEAGSPAINLMGVKVGEMCEAQEWIERLLVSLDHHIIENNHILYLGKKEHDVLSELQTSTRVSISETVSPRTATLEIKGPQADLIDAVMRIECMLCDVQEEVAGKREKNLWSLSGQGTNQQEKLDKMEESYTFQRYPASLTQELQDRKKQFEKCGLWVVQVEQIDNKVLLAAFQEKKKMMEERTPKGSGSQRLFQQVPHQFCNTVCRVGFHRMYSTSYNPVYGAGIYFTKSLKNLADKVKKTSSTDKLIYVFEAEVLTGSFCQGNSSNIIPPPLSPGALDVNDSVVDNVSSPETIVVFNGMQAMPLYLWTCTQDRTFSQHPMWSQGYSSGPGMVSSLQSWEWVLNGSSV
B3: Parp12 (protein, UniProt Q8BZ20 1-711)
chain: MAQAAVAVAEVTQLLCAAGGALELAELRRRLRTSLGTDALERLLRDCGRFVVASRAVVAVGAGREAAAAASERLVLAVSSLRLCRAHQGPKPGCTGLCAQLHLCKFLIYGNCKFLKTGKNCRNGHNLKTDHNLSVLRTHGVDHLTYTELCQLLLQNDPSLLPDICLHYNKGDGPFGSCSFQKQCIKLHICQYFLQGECKFGTSCKRSHEFTNSESLEQLERLGLSSDLVSRLLSTYRNAYDIKNKGSALSKVSPSPAGPQGSSERKDSSGPVSPGTPSQEESEQICLYHIRKSCSFQEKCHRVHFHLPYRWQFLDGGKWKDLDNMELIEEAYSNPSKDRIVYTESAAGFHFDNLDFNSMKFGNTLARRLSTASSVTKPPHFILTTDWIWYWMDEFGSWQEYGRQGSGHPVTTISSSDVERAYLAFCAPGADAQAATLKFQAGKHNYELHFKAFLQKNLVYGTIRKVCRRPKYVSPQDVQMKQSCNTKLHGPKSIPDYWDPAALPDLGFKKITLSSSSEEYQKVWNIFNRTLPFYFVQKIERIQNMGLWEVYQWQKCQMQKQNGGKEVDERQLFHGTSANFVDAICQQNFDWRVCGLHGTSYGKGSYFARDAAYSHHYSKSDTHSHMMFLARVLVGDFVRGSTSFVRPPAKEGQSNAFYDSCVNSMSDPTIFVVFEKHQVYPEYLIQYSTSSKPPASPSIFVALGNLFTSRQ
B4: IFI203 (protein, UniProt O35368 1-408)
chain: MAEYKNIVLLKGLENMEDYQFRTVKSLLRKELKLTKKMQEDYDRIQLADWMEDKFPKDAGLDKLIKVCEHIKDLKDLAKKLKTEKAKVQEKKKGKCKTAGKKKGQDELSSSESLFINKESYKSVPSSKKKRKQITKTEGGKKKKLTQEQAQLPETSGTNIKKEEDCLQNPHKSPPTPSSSSSNKAPRRGTVPKEPSREEGHHQGPKQVMVLKVTEPFTYDFEETKRMFHATVATETEFFRVKVFDTALMSKFIPGKIIAISHYIGCNGFLEIYRASCVSDVNINPTMIISNTLSESAIATPKISYLLSQAKGTFVNGEFVVFKKSERHECICYGIGDDTGKMAVVVYGRLTNVRCEPGSKLRLVCFELTSTKDVCLLRSVRHSYMQVINEGKPLNPDSVRRNSLEPYF
B5: TRIM14 (protein, UniProt Q8BVW3 1-440)
chain: MASETTEARAPFQPDGAYGWRCPEHSERPAELFCRRCGRCVCALCPVLGAHRGHPVGLAEEEAVRVQKLIQDCLECLATKKRQHADNIAHLEDAGERLKVYADSSKAWLTQKFTELRLLLDEEEVLAKKFIDKSTQLTLQVYREQAETCGKQIEVMDDFSTRVWGIGQEPNPVQLLQAYIATKTEMGQQMSPSELSHPVPLSFEPVKNFFKEFVEAIGNTLQTPMDTRLKENINCQLSNSSSTKPGALLKTSPSPERALFLKYARTPTLDPDTMHARLRLSPDGLTVRCSLLGRLGPRPAPRFDALRQVLGRDGFAAGRHYWEVDVQEAGVGWWVGAAYPSLRRRGASAAARLGCNRESWCVKRYDLEYWAFHDGQRSRLRPRRDPHRLGVFLDYEAGILAFYDVAGGMSHLHTFHAAFQEPLYPALRLWEGPISIPRLP
B6: IRF9, Q61179 1-399 (protein)
chain: MASGKVRCTRKLRSWIVEQVESGHFPGVCWDDAAKTMFRIPWKHAGKQDFREDQDAAIFKAWALFKEKHKDGDIGHPAVWKTRLRCALNKSSEFEEVPERGRMDVAEPYKVYRILPAGTLPNQPRNQKSPCKRSISCVSPEREENMENGRTNGVVNHSDSGSNIGGGGNGSNRSDSNSNCNSELEEGAGTTEATIREDPVFLEHQLPLNSDYSLLLTFIYGGRVVGKTQVHSLDCRLVAERSDSESSMEQVEFPKPDPLEPTQHLLNQLDRGVLVASNSRGLFVQRLCPIPISWNAPEAPPGPGPHLLPSNKCVELFKTTYFCRDLAQYFQGQGPPPKFQATLHFWEESPGSSHSQENLITVQMEQAFARHLLEKIPEEEKAALFLLQHTEQSPSALGH
B7: c/EBPδ (protein, UniProt Q00322 1-268)
chain: MSAALFSLDSPVRGTPWPTEPAAFYEPGRVDKPGRGPEPGDLGELGSTTPAMYDDESAIDFSAYIDSMAAVPTLELCHDELFADLFNSNHKAAGAGGLELLQGGPTRPPGVGSVARGPLKREPDWGDGDAPGSLLPAQVAVCAQTVVSLAAAAQPTPPTSPEPPRGSPGPSLAPGTVREKGAGKRGPDRGSPEYRQRRERNNIAVRKSRDKAKRRNQEMQQKLVELSAENEKLHQRVEQLTRDLAGLRQFFKKLPSPPFLPPTGADCR
B8: YEATS2 (protein, UniProt Q3TUF7 1-1407)
chain: MSGIKRTIKETDPDYEDVSVALPNKRHKAIESSARDAAVQKIETIIKEQFALEMKNKEHEIDVIDQRLIEARRMMDKLRACIVANYYASAGLLKVSEGLKTFDPMAFNHPAIKKFLESPSRSSSPTNQRSETPSANHSESDSLSQHNDFLSDKDNNSNVDVEERPPSTGEQRPSRKAGRDTSSISGSHKRELRNADLTGDETSRLFVKKTIVVGNVSKYIPPDKREENDQSTHKWMVYVRGSRREPSINHFVKKVWFFLHPSYKPNDLVEVREPPFHLTRRGWGEFPVRVQVHFKDSQNKRIDIIHNLKLDRTYTGLQTLGAETVVDVELHRHSLGEDSVYPQSSESDVCDAPPPTLTLPAAVKASAVAQSPEPAAAAPVGEGFPETTEAERHSTFYSLPSSLERTPTKVTTAQKVTFSSHGNSAFQPIASSCKIVPQSQVPNPESPGKSFQPITMSCKIVSGSPISTPSPSPLPRTPTSTPVHLKQGTASSGVSNPHVIVDKPGQVIGASTPSTGSPTSKLPVASQASQGTGSPIPKIHGSSFLTSTVKQEESLFASMPPLCPIGSHPKVQSPKAVTGGLGAFTKVIIKQEPGEAPHVSTTGAASQSAFPQYVTVKGGHMIAVSPQKQVISAGEGTTQSPKIAPSKVVGVPVGSALPSTVKQAVAISSGQILVAKASSSVTKAVGPKQVVTQGVAKAIVSGGGGTIVAQPVQTLTKTQVTAAGPQKSGSQGSVMATLQLPATNLANLANLPPGTKLYLTTNSKNPSGKGKLLLIPQGAILRATNNANLQSGSAAAGGSGSSGAGGGSGGGGGSGAGGTPSTSGPGGGPQHLTYTSYILKQTPQGTFLVGQPSPQTPGKQLTTASVVQGTLGVSSSSAQGQQTLKVISGQKTTLFTQAATAGQASLLKLPDNTLKSVPAAPQLAKPGTTMLRVAGGVITAAPSPAVAFSANGAVHQSEGSTPVSSSVGSIIKTPGQPQVCVSQATMATCKGPAAVAGTAASLVSAPSSISGKATVSGLLKVHSAQSSPQQAVLTIPSQLKPLSINTSGGVQTVLMPVNKVVQSFSTSKLPTTVLPISVPNQAAPSSAPVAIAKVKTEPETPGPNCISQENQVAVKTEESSELSNYVIKVDHLETIQQLLTAVVKKIPLITAKGDDASCFSAKSLEQYYGWNIGKRRAAEWQRAMTVRKVLQEILEKNPRFHHLTPLKTKHIAHWCRCHGYTPPDPESLRHDGDSIEDVLTQIDSEPECLSSFSTADDLCRKLEDLQQFQKREPENEEEVDILSLSEPLKTNIKKEQEEKQEEMRFYLPPTPGSGFVGDITQKIGITLQPVALHRNMYASVVEDMILKATEQLVSDILRQALAVGYQTASPNRIPKEITVSNIHQAICNIPFLDFLTNKHMGRLNEDQ

Key:
STAT1-TurboID-V5 (mouse) = target: T1, STAT1-TurboID-V5 (mouse); test: proximity labelling; TurboID; STAT1-TurboID-V5 (STAT1-BirA*) in Stat1-/- RAW 264.7 cells, Dox 24 h, untreated or IFNβ or IFNγ 3 h, 500 µM biotin 10 min; nuclear extracts, streptavidin beads, mass spectrometry; log2FC >= 1 above BirA*-NLS control, Padj <0.05
[1] = target: T2, STAT1-TurboID-V5 (mouse), P42225; test: as above; conditions: remark: other sources report otherwise

Row | Binder | binding (STAT1-TurboID-V5 (mouse)) | binding [1]
1 | B1 | binds | 
2 | B2 | binds | 
3 | B3 | binds | 
4 | B4 | binds | 
5 | B5 | binds | 
6 | B6 |  | binds
7 | B7 | binds | 
8 | B8 | binds | 
